These are yes or no findings as the source states them, for the method shown. In cells and extracts the contact can be indirect. Some entries that bind do so weakly or less than the wild type.
Legend:
[1] = molecular target: T1, ChREBP (Carbohydrate Responsive Element Binding Protein), ectopically expressed in 293T cells (UniProt Q99MZ3); test: co-IP; reciprocal co-immunoprecipitation of ectopically expressed proteins in 293T cells
T1 sequence: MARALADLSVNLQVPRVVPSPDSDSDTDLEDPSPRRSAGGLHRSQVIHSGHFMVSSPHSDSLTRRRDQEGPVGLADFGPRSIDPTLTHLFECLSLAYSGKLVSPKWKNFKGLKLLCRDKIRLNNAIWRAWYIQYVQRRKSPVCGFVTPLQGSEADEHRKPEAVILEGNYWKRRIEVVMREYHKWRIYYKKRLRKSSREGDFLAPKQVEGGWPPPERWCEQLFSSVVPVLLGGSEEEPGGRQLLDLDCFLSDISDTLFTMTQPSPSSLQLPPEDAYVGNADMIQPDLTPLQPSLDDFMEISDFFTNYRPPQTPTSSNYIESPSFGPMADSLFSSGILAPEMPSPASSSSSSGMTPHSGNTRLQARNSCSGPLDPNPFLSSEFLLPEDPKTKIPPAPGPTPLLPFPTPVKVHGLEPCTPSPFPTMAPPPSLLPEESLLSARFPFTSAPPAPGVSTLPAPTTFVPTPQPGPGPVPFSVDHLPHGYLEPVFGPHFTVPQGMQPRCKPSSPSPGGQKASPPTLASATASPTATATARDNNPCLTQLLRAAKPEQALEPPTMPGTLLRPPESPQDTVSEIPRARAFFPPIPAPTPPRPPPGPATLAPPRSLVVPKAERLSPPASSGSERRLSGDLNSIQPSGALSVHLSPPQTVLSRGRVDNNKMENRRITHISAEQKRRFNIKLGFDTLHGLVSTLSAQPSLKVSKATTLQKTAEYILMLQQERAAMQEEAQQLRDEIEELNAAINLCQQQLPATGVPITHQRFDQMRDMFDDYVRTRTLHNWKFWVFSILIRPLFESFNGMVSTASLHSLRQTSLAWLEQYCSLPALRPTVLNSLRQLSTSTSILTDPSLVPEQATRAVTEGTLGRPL

Sequences of proteins named here, by UniProt entry; tags and fusion partners are left off.
UniProt O75151: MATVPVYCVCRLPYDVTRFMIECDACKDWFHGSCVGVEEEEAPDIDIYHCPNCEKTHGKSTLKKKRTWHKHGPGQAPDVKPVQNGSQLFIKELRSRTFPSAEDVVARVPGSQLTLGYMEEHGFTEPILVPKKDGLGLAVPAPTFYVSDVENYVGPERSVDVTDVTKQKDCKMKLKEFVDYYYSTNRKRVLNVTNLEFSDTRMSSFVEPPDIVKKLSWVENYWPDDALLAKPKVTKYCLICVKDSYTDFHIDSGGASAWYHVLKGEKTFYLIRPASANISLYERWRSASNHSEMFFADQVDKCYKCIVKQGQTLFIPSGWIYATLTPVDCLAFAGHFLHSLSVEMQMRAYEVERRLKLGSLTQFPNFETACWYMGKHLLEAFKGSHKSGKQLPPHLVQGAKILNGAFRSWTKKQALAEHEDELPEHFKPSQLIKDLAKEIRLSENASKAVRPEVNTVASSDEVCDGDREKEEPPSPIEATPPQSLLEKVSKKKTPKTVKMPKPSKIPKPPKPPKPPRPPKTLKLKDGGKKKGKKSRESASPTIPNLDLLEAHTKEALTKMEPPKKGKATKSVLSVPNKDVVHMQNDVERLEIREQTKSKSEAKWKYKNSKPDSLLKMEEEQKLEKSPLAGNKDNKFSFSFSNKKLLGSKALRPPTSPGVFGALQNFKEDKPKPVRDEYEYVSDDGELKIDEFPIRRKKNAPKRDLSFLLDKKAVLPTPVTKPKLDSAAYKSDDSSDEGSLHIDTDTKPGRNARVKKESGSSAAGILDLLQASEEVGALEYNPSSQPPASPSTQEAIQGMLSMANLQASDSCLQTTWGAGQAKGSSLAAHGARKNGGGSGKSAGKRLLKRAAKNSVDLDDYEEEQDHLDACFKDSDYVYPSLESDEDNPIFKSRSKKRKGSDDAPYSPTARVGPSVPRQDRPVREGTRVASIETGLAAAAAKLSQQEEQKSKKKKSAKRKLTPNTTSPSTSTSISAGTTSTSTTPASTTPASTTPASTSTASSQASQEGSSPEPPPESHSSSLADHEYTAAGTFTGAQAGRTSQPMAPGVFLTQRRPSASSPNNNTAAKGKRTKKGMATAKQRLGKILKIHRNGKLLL
UniProt Q9WTU0: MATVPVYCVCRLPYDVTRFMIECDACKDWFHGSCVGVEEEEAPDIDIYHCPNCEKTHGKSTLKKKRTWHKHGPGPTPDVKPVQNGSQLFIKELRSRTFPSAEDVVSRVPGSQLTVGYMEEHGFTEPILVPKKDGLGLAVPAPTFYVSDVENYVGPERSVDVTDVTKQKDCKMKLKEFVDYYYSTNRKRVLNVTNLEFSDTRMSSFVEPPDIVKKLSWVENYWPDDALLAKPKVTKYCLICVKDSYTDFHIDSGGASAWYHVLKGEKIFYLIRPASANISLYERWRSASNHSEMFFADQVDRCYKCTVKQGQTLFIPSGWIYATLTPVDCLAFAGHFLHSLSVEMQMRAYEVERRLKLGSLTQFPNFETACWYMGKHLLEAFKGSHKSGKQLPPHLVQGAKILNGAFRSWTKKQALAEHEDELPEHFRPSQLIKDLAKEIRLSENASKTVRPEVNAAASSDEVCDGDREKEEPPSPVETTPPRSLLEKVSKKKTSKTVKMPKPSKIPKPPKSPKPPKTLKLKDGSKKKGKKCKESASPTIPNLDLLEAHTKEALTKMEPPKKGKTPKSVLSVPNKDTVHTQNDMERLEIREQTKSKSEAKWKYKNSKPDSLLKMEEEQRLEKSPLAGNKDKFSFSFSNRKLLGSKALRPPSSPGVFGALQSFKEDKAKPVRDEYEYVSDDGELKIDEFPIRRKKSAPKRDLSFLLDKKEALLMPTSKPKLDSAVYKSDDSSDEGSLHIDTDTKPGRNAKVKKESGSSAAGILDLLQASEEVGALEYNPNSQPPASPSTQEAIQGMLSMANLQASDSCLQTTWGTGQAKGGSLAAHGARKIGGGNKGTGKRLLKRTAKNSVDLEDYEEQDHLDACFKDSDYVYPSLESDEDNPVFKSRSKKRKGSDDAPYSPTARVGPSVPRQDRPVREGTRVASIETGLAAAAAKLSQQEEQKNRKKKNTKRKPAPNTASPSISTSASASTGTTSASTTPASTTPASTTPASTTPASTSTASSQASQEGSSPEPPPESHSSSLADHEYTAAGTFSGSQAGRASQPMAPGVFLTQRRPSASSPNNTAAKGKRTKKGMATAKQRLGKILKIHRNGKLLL

[2] = molecular target: T2, endogenous ChREBP (mouse liver) (mouse (endogenous in liver of C57Bl/6J mice)) (UniProt Q99MZ3); test: co-IP; reciprocal co-immunoprecipitation of endogenous proteins in the liver of fed C57Bl/6J mice
T2 sequence: T1 sequence

Row | Substance | binding [1] | binding [2]
1 | FLAG-tagged wild-type Phf2 (Plant Homeodomain Finger 2) (from UniProt O75151 1-1096) (enzyme) | binds | –
2 | endogenous Phf2 (mouse liver / hepatocytes) (from UniProt Q9WTU0 1-1096) (enzyme) | – | binds
